Data as given in PMC10717060.
No constants are given. Whether binding was seen depends on the method and setting. In cells and extracts the contact can be indirect. Binding can be weak; no strength is given.

Sequences of proteins named here, by UniProt entry; tags and fusion partners are left off. A change or cut given only in a name is not applied to a line headed by its entry.
UniProt Q91ZW1: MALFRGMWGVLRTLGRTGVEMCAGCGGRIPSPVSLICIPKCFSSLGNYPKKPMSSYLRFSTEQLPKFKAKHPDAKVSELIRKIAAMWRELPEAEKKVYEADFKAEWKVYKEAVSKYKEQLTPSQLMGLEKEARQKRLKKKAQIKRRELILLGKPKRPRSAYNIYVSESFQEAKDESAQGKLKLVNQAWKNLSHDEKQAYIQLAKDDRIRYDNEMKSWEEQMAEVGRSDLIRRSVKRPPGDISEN

Biological target: T1, Tom70 (rat (endogenous in primary PVECs)) (UniProt Q75Q39)
T1 sequence: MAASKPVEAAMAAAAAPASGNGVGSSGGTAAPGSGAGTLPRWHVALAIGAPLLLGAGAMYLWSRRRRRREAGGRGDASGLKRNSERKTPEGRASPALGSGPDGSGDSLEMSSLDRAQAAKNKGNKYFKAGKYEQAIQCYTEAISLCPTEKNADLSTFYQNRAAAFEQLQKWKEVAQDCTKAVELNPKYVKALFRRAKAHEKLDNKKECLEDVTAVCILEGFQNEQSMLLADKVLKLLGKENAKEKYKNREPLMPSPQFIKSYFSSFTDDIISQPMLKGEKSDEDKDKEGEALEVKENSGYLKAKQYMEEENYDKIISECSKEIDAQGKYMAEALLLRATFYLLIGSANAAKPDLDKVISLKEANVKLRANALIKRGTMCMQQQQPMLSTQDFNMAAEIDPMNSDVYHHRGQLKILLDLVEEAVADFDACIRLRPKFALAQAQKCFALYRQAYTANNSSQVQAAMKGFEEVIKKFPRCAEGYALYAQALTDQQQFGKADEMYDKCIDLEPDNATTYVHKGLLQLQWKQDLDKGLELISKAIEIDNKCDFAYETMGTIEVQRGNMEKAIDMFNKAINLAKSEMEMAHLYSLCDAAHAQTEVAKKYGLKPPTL
Assay: co-IP; primary cultured PVECs; IP and IB; which protein was precipitated and which groups of cells were used is not given

Substance: mitochondrial transcription factor A (from UniProt Q91ZW1)
- binding: binds
